Results deposited as PubChem BioAssay AID743121 (NCATS, 2013)

Assay: 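Knock-downs that sensitise breast cancer cells to camptothecin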 (primary screen)
Cells: MDA-MB-231 cells, a human breast cancer line
Knock-down reagent: single siRNA against human genes, 20 nM siRNA (0.8 pmol per well)
Duration: 120 h (drug added 48 h after transfection, read 72 h later)
Challenge: camptothecin 20 nM (about EC30) for 72 h; vehicle 0.1% DMSO in parallel plates
Measurement: 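Cell viability by ATP luminescence (CellTiter-Glo) as % of non-targeting siRNA wells, and the log2 ratio of viability without drug over viability with camptothecin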
Reading the numbers: log2 vehicle/camptothecin viability: higher = stronger sensitisation to camptothecin; viability with camptothecin and viability without drug: higher = more viable cells
Hit rule: 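Active genes have an RSA gene-level p-value below 0.001, computed from the ratios of their separate siRNAs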
The deposit covers about 26,000 reagents; below is a random part of them. In the full data, 167 (0.63%) got an active call. 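Calls are per gene from RSA p-values that are not deposited; an individual active-marked siRNA can sensitise only weakly.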 A number with no mark means an inactive call. Reagents against one gene are numbered here.

no.	target	reagent	log2 vehicle/camptothecin viability	viability with camptothecin (% of control)	viability without drug (% of control)
1	CENPF (GeneID 1063)	1	0.0902	96.8	103
2	CENPF (GeneID 1063)	2	-0.544	90.1	61.8
3	CENPF (GeneID 1063)	3	-0.312	78.9	63.6
4	CENPF (GeneID 1063)	4	-0.48	82.4	59.1
5	HNMT (GeneID 3176)	1	-0.38	98	75.3
6	HNMT (GeneID 3176)	2	-0.0177	89.1	88.1
7	HNMT (GeneID 3176)	3	0.517	41.8	59.9
8	HNMT (GeneID 3176)	4	-0.26	91.1	76.1
9	GUK1 (GeneID 2987)	1	-0.427	65.5	48.7
10	GUK1 (GeneID 2987)	2	-0.262	68.1	56.8
11	GUK1 (GeneID 2987)	3	-0.168	79.5	70.8
12	GUK1 (GeneID 2987)	4	-0.612	48.5	31.7
13	PRDX5 (GeneID 25824)	1	-0.0278	78.1	76.6
14	PRDX5 (GeneID 25824)	2	-1.51	8.8	3.09
15	PRDX5 (GeneID 25824)	3	0.578	40.7	60.8
16	PRDX5 (GeneID 25824)	4	-0.0609	62.6	60.1
17	PTPN11 (GeneID 5781)	1	-0.0334	106	103
18	PTPN11 (GeneID 5781)	2	0.613	39	59.6
19	PTPN11 (GeneID 5781)	3	-0.202	103	89.9
20	PTPN11 (GeneID 5781)	4	-0.456	82.2	59.9
21	FCN2 (GeneID 2220)	1	-0.342	30.9	24.4
22	FCN2 (GeneID 2220)	2	-0.201	67.9	59.1
23	FCN2 (GeneID 2220)	3	0.0454	87.6	90.4
24	FCN2 (GeneID 2220)	4	0.274	36.4	44.1
25	KIFC1 (GeneID 3833)	1	0.648	23	36
26	KIFC1 (GeneID 3833)	2	-0.262	56.6	47.2
27	KIFC1 (GeneID 3833)	3	-0.369	45.1	34.9
28	KIFC1 (GeneID 3833)	4	0.282	31.3	38.1
29	CD248 (GeneID 57124)	1	-0.293	93	75.9
30	CD248 (GeneID 57124)	2	0.0382	88.5	90.9
31	CD248 (GeneID 57124)	3	-0.664	94.9	59.9
32	TRPC4 (GeneID 7223)	1	0.0628	14.5	15.1
33	TRPC4 (GeneID 7223)	2	-0.618	20.7	13.5
34	TRPC4 (GeneID 7223)	3	-0.48	91.5	65.6
35	TRPC4 (GeneID 7223)	4	-0.118	44.6	41.1
36	TIRAP (GeneID 114609)	1	-0.389	94.8	72.4
37	TIRAP (GeneID 114609)	2	-0.344	80	63
38	TIRAP (GeneID 114609)	3	0.456	54.9	75.3
39	TIRAP (GeneID 114609)	4	-0.401	107	81.1
40	ANKIB1 (GeneID 54467)	1	-0.137	93.7	85.2
41	ANKIB1 (GeneID 54467)	2	-0.244	117	98.9
42	ANKIB1 (GeneID 54467)	3	-0.0341	108	106
43	ANKIB1 (GeneID 54467)	4	-0.0198	97.9	96.5
44	C3orf38 (GeneID 285237)	1	-0.411	71.6	53.9
45	C3orf38 (GeneID 285237)	2	-0.126	63	57.7
46	C3orf38 (GeneID 285237)	3	-0.194	94.8	82.8
47	C3orf38 (GeneID 285237)	4	-0.0757	37.9	35.9
48	PLK2 (GeneID 10769)	1	1.22	16.2	37.7
49	PLK2 (GeneID 10769)	2	-0.255	70	58.7
50	PLK2 (GeneID 10769)	3	-0.00961	86.7	86.1
51	PLK2 (GeneID 10769)	4	-0.363	116	90.4
52	WNT4 (GeneID 54361)	1	-0.216	103	88.7
53	WNT4 (GeneID 54361)	2	-0.245	51.9	43.8
54	WNT4 (GeneID 54361)	3	0.119	15.8	17.1
55	WNT4 (GeneID 54361)	4	-0.185	96.1	84.5
56	GNAL (GeneID 2774)	1	-0.377	72.3	55.6
57	GNAL (GeneID 2774)	2	0.549	23.8	34.8
58	GNAL (GeneID 2774)	3	-0.126	82	75.2
59	GNAL (GeneID 2774)	4	-0.0228	86.9	85.6
60	OR6W1P (GeneID 89883)	1	0.132	61.7	67.6
61	OR6W1P (GeneID 89883)	2	-0.265	67.6	56.3
62	OR6W1P (GeneID 89883)	3	-0.338	67.2	53.2
63	OR6W1P (GeneID 89883)	4	-0.234	74.7	63.5
64	GPR3 (GeneID 2827)	1	-0.194	52.3	45.7
65	GPR3 (GeneID 2827)	2	0.527	62.8	90.5
66	GPR3 (GeneID 2827)	3	-0.27	71.1	59
67	GPR3 (GeneID 2827)	4	0.0393	61.9	63.6
68	CA8 (GeneID 767)	1	0.0549	95.4	99.1
69	CA8 (GeneID 767)	2	-0.149	119	108
70	CA8 (GeneID 767)	3	-0.118	105	96.8
71	CA8 (GeneID 767)	4	-0.451	90.9	66.5
